Measurements reported in PubChem BioAssay AID504834 (National Center for Advancing Translational Sciences (NCATS), 2011).
“And” between values parts separate entries of the source, which are not always exact repeats. Equal values may be shown once. Out of some 320,000 compounds screened, about 22,000 (6.9%) were called active. Inconclusive means that the source gave no clear call. Such entries were picked first, then a sample of the others. Calls come from the whole dose curve; as a rule, active = well fitted inhibition curve with a large enough effect; inconclusive = small, poorly fitted or top-dose-only effect, or another doubt; inactive = no such curve, though single readings can be large or run the other way. Potencies beside an inconclusive call are fits to weak or partial responses and may not hold up. Where a structure was tested more than once in an assay, its records may differ in their call.

Test: Primary qHTS for delayed death inhibitors of the malarial parasite plastid, 96 hour incubation
Settings: P. falciparum luciferase reporter growth; series mostly up to 28.7 µM
How it was run: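 Compounds incubated with erythrocytes infected by luciferase-expressing P. falciparum (2% hematocrit, 0.05% parasitemia final) for 96 hours, 37 C in 5% CO2. Growth inhibition scored as decreased luciferase luminescence.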
Potency is the fitted concentration of half-maximal effect.

SMILES | Potency
COc1ccc(-n2c(=O)cc(N3CC(C)OC(C)C3)[nH]c2=O)cc1 (configuration not stated) | inconclusive: 13.1 µM [inhibitor, partial curve, poor fit]
C=CCn1c(CNC(=O)c2ccccc2F)nnc1SCC(=O)N1CCOCC1 | inconclusive: 18.5 µM [inhibitor, single point]
O=S(=O)(NCC(c1cccnc1)N1CCN(c2ccc(F)cc2)CC1)c1ccc(F)cc1 (configuration not stated) | inconclusive: 13.1 µM [inhibitor, single point]
CCN1C(=NCCN2CCOCC2)N[C@@H](c2ccccc2)C(C(=O)OC)=C1C | inactive and active: 1.07 µM
O=C(NCC1CCCCC1)c1ccc(=O)[nH]c1 | inactive
CN(C)C(=O)Oc1ccc2c(c1)O/C(=C\c1cccc([N+](=O)[O-])c1)C2=O | inactive
CCc1cc2c(=O)c(-c3cnn(-c4ccccc4)c3)c(C)oc2cc1OCC(=O)Nc1cccc(C)c1 | inconclusive: 5.86 µM [inhibitor, partial curve]
O=C(CNC(=O)OCc1ccccc1)Nc1ccc(F)cc1 | inactive
Cc1cccc(N2CC(O)(c3cccs3)[N+]3=C2CCCCC3)c1 (configuration not stated) | inconclusive: 4.15 µM [inhibitor, full curve, poor fit]
COc1ccc(CNC2CCCc3ccccc32)c(OC)c1 (configuration not stated) | inconclusive: 18.5 µM [inhibitor, single point]
CCOC(=O)c1sc(=S)n(C)c1NC(=O)c1ccccc1Cl | inconclusive: 18.5 µM [inhibitor, single point]
Cc1cc(C)cc(-n2c(C)c3c(C)nnc(C)c3c2C)c1 | inconclusive: 18.5 µM [inhibitor, single point]
CC1CCN(C(=O)Cn2nnc(-c3ccc([N+](=O)[O-])cc3)n2)CC1 | active: 14.7 µM
O=C(NCC(c1cccs1)N1CCOCC1)c1ccccc1NS(=O)(=O)c1cc([N+](=O)[O-])ccc1Cl (configuration not stated) | active: 13.1 µM
O=C1c2ccccc2C(=O)C1c1ccc2ccccc2n1 | inconclusive: 0.0828 µM [inhibitor, full curve, poor fit]
CC(=O)N1CCOc2ccc(S(=O)(=O)Nc3cccc(C)n3)cc21 | inconclusive: 0.0828 µM [inhibitor, full curve, poor fit]
C=C(C(=O)c1ccccc1)C(C)C(=C)C(=O)c1ccccc1 | active: 10.4 µM
COc1cccc(NC(=O)[C@@H](NC(=O)N2CCn3c2nc2ccccc23)C(C)C)c1 | inconclusive: 18.5 µM [inhibitor, single point]
CC(=O)CSc1ccc(-c2nc3cc(C)c(C)cc3[nH]2)cn1 | inactive
COc1ccc(CN2CCN(Cc3ccc4ccccc4c3)CC2)cc1OC | inactive
CCCCNc1nc2ccccc2n1CC(=O)Nc1c(C)cccc1CC | inconclusive: 18.5 µM [inhibitor, single point]

Quoted from the listing.
Potency, O=C(CNC(=O)OCc1ccccc1)Nc1ccc(F)cc1 reads inactive
Potency, O=C(NCC1CCCCC1)c1ccc(=O)[nH]c1 reads inactive

The list goes on:

SMILES | Potency
COc1cccc(C2c3[nH]c4ccccc4c3C[C@H]3C(=O)N(c4ccccc4C(=O)N4CCC(C(=O)O)CC4)C(=O)N23)c1 (some centres not stated) | inconclusive: 4.65 µM [inhibitor, partial curve, poor fit]
CCOC(=O)[C@H]1[C@H]2COc3ccc(Br)cc3[C@@H]2N2C(=O)CN(CC3CCCO3)C(=O)[C@@]12C (some centres not stated) | inconclusive: 5.22 µM [inhibitor, single point]
O=C(NCCc1ccccc1)C1CCN(C(=O)NCc2ccccc2)CC1 | inconclusive: 11.7 µM [inhibitor, partial curve]
COc1ccc(S(=O)(=O)NCC2CCCN(C(=O)c3cccs3)C2)cc1 (configuration not stated) | inconclusive: 9.28 µM [inhibitor, single point]
CN(c1nc2ccccc2n2c(C3CC3)nnc12)S(=O)(=O)c1ccccc1 | inactive
CCOC(=O)C1CCN(C(=O)CSc2cc(=O)n(C)c3ccccc23)CC1 | active: 2.33 µM
COc1cccc(COCC(O)Cn2cnc3cc(C)c(C)cc32)c1 (configuration not stated) | inconclusive: 18.5 µM [inhibitor, single point]
Cc1cccc(C(=O)NCC(=O)N2CC(=O)Nc3ccccc32)c1 | inactive
CC(C)n1c(CCC(=O)O)ccc1-c1ccccc1 | inconclusive: 4.65 µM [inhibitor, partial curve, poor fit]
COc1cc(CC(=O)Nc2cccc(SC)c2)cc(OC)c1OC | inconclusive: 0.233 µM [inhibitor, full curve, poor fit]
O=C(CN1CCOCC1)NCc1cc([N+](=O)[O-])ccc1O | inconclusive: 0.0828 µM [inhibitor, full curve, poor fit]
Cc1c(C(=O)NCc2ccccn2)oc2ccc(S(=O)(=O)N3CCC4(CC3)OCCO4)cc12 | inconclusive: 11.7 µM [inhibitor, single point]
COc1ccc(CNC(=O)CN(C(=O)c2csnn2)c2cccc(C(C)=O)c2)cc1 | inconclusive: 11.7 µM [inhibitor, partial curve]
Cc1ccc(C(=O)c2oc3ccc(Cl)cc3c2NC(=O)CN2CCN(C)CC2)cc1 | inactive
O=C1CN(C(=O)/C=C/c2cccc(Cl)c2)c2ccccc2N1 | inconclusive: 18.5 µM [inhibitor, partial curve, poor fit]
CC(=O)NC(Cc1cc(C)ccc1C)C(=O)N1CCN(C(=O)c2ccccc2Br)CC1 (configuration not stated) | inconclusive: 18.5 µM [inhibitor, single point]
CCC(C(=O)OCC(=O)Nc1c(Cl)cc(Cl)cc1Cl)c1ccccc1 (configuration not stated) | inconclusive: 1.85 µM [inhibitor, partial curve, poor fit]
Cc1ccc(S(=O)(=O)NCC(=O)NCC2COc3ccccc3O2)cc1C (configuration not stated) | inconclusive: 2.94 µM [inhibitor, full curve, poor fit]
COc1ccc(N2CCN(C(=O)CCS(=O)(=O)c3cccc4nsnc34)CC2)cc1 | inactive
O=C(NNC(=O)c1cccs1)c1ccc2ccccc2c1 | active: 1.65 µM
COc1cccc(CN(C)C(=O)C(CCSC)NS(=O)(=O)c2ccc3c(c2)OCCO3)c1OC (configuration not stated) | inconclusive: 11.7 µM [inhibitor, single point]
